Structures can show the parent of a compound that is named as a salt. The list shows a part of the results. Repeats in this data set agree poorly, so a single value says little.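 Wild-type human LRH-1, a heavily sumoylated nuclear receptor, is tetracycline-inducible in stable JEG3 cells. RT-qPCR measured SUMO-sensitive APOC3 and MUC1 transcripts, which rise with SUMO-less LRH-1 or UBC9 knockdown, versus TBP and DMSO controls. Robust Z-scores beyond ±2 flagged primary hits, followed by toxicity and TBP filtering.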
system: JEG3 expressing hLRH-1; assay: MUC1 transcript change (ddCt vs TBP and DMSO), Z-score over library; higher = higher MUC1 expression; conditions: 10 µM; time (hr): 24

SMILES	MUC1 transcript change (Z-score)
O=C(CCCN1CCC(O)(c2ccc(Cl)cc2)CC1)c1ccc(F)cc1 [Haloperidol]	0.318
CC(=O)OCC[N+](C)(C)C [acetylcholine]	0.483
OCCN1C[C@H](O)[C@@H](O)[C@H](O)[C@H]1CO [miglitol]	0.797
COc1ccc(-n2nc(CCC(=O)N(C)O)cc2-c2ccc(Cl)cc2)cc1 [tepoxalin]	-0.6
O=C(O)c1ccccc1C(=O)Nc1ccc(S(=O)(=O)Nc2nccs2)cc1 [phthalylsulfathiazole]	-0.317
CC/C=C\C/C=C\C/C=C\C/C=C\C/C=C\CCCC(=O)OCC [omega-3-acid esters (epa shown)]	-0.652
CO[C@@]1(NC(=O)C(C(=O)O)c2ccc(O)cc2)C(=O)N2C(C(=O)O)=C(CSc3nnnn3C)CO[C@@H]21 (some centres undefined) [moxalactam disodium]	-0.161
CC(=O)OCC(COC(C)=O)OC(C)=O [triacetin]	0.295
CC1=C(/C=C/C(C)=C/C=C/C(C)=C\C(=O)O)C(C)(C)CCC1 [isotretinon]	-1.73
COc1c(C)c2c(c(O)c1C/C=C(\C)CCC(=O)OCCN1CCOCC1)C(=O)OC2 [mycophenolate mofetil]	1.2
CC1=C(/C=C/C(C)=C/C=C/C(C)=C/C(=O)O)C(C)(C)CCC1 [tretinon]	-1.6
Nc1nc(O)c2ncn(CCC(CO)CO)c2n1 [penciclovir]	-0.553
NC(CO)C(=O)NNCc1ccc(O)c(O)c1O (centres undefined) [Benserazide hydrochloride]	0.523
COc1ccc(CC2c3cc(OC)c(OC)cc3CC[N+]2(C)CCC(=O)OCCCCCOC(=O)CC[N+]2(C)CCc3cc(OC)c(OC)cc3C2Cc2ccc(OC)c(OC)c2)cc1OC (centres undefined) [atracurium besylate]	0.188
O=C(O)CCC(=O)c1ccc(-c2ccccc2)cc1 [fenbufen]	0.39
C#C[C@]1(OC(C)=O)CCC2C3CCC4=C/C(=N/O)CCC4C3CC[C@@]21CC (some centres undefined) [norgestimate]	0.846
C[C@H]1O[C@H](O[C@H]2[C@H](O)[C@@H](O)[C@@H](O[C@H]3[C@H](O)[C@@H](O)C(O)O[C@@H]3CO)O[C@@H]2CO)[C@H](O)[C@@H](O)[C@@H]1N[C@H]1C=C(CO)[C@@H](O)[C@H](O)[C@H]1O (some centres undefined) [acarbose]	-0.616
CO/C(O)=C1\C(C)=NC(C)=C(C(=O)OCC(C)C)C1c1ccccc1[N+](=O)[O-] (centres undefined) [nisoldipine]	1.48
CCc1c2c(nc3ccc(OC(=O)N4CCC(N5CCCCC5)CC4)cc13)-c1cc3c(c(=O)n1C2)COC(=O)[C@]3(O)CC [irinotecan hydrochloride]	-0.319
CN[C@H]1CC[C@@H](c2ccc(Cl)c(Cl)c2)c2ccccc21 [sertraline hydrochloride]	1.47
Cn1c(=O)c2nc[nH]c2n(C)c1=O [Aminophylline]	0.672
CCn1cc(C(=O)O)c(=O)c2cc(F)c(N3CCNCC3)nc21 [enoxacin]	1.34
Fc1ccc([C@@H]2CCNC[C@H]2COc2ccc3c(c2)OCO3)cc1 [paroxetine hydrochloride]	-0.512
NCC[C@H](O)C(=O)N[C@@H]1C[C@H](N)[C@@H](O[C@H]2O[C@H](CN)[C@@H](O)[C@H](O)[C@H]2O)[C@H](O)[C@H]1O[C@H]1O[C@H](CO)[C@@H](O)[C@H](N)[C@H]1O [amikacin sulfate]	0.959
O[C@H]1[C@H](O)[C@@H](O)[C@H](O)[C@@H](O)[C@H]1O [inositol]	1.16

SMILES	MUC1 transcript change (Z-score)
O=C1c2c(O)cccc2Cc2cccc(O)c21 [anthralin]	1.3
C[C@]12C=CC(=O)C=C1CCC1C2[C@@H](O)C[C@@]2(C)C1CC[C@]2(O)C(=O)CO (some centres undefined) [prednisolone]	-0.551
C[C@H](CS)C(=O)N1CCC[C@H]1C(=O)O [Captopril]	-0.338
NCCc1ccc(O)c(O)c1 [Dopamine hydrochloride]	-0.259
Cc1ccsc1/C=C/C1=NCCCN1C [morantel citrate]	0.595
CCN1CCN(c2cc3c(cc2F)c(=O)c(C(=O)O)cn3C2CC2)CC1 [enrofloxacin]	0.39
Cc1c(Nc2ncccc2C(=O)O)cccc1C(F)(F)F [flunixin meglumine]	-0.628
Oc1nc2ccccc2n1C1CCN(CCCC(c2ccc(F)cc2)c2ccc(F)cc2)CC1 [Pimozide]	-0.727
COc1ccc2[nH]c(S(=O)Cc3ncc(C)c(OC)c3C)nc2n1 (centres undefined) [tenatoprazole]	-0.173
CCCCC1C(=O)N(c2ccccc2)N(c2ccccc2)C1=O [Phenylbutazone]	-0.203
O=C1C(O)=C(O)C(=O)C(O)=C1O [tetroquinone]	0.421
CC1OC(O[C@H]2/C=C/C=C/C=C/C=C/C=C/C=C/C=C/[C@H](C)[C@@H](O)[C@@H](C)[C@H](C)OC(=O)CC(O)CC(O)CCC(O)C(O)CC(O)C[C@]3(O)C[C@H](O)C(C(=O)O)C(C2)O3)C(O)[C@H](N)C1O (some centres undefined) [amphotericin b]	0.808
CCN(CC)CCOCCOC(=O)C1(c2ccccc2)CCCC1 [Carbetapentane citrate]	0.648
CC(=O)Nc1ccc(C(=O)O)cc1 [acedoben]	0.479
CC(C)(C)CC(C)(C)c1ccc(OCCOCC[N+](C)(C)Cc2ccccc2)cc1 [benzethonium chloride]	1.91
CC(C)(C)NC(=O)[C@H]1CC[C@H]2[C@@H]3CC[C@H]4NC(=O)C=C[C@]4(C)[C@H]3CC[C@]12C [finasteride]	-0.486
CN(CCOc1ccc(CC2SC(=O)NC2=O)cc1)c1ccccn1 (centres undefined) [rosiglitazone]	-0.439
N=C(N)Nc1nc(CSCCC(=N)NS(N)(=O)=O)cs1 [famotidine]	0.761
C=C1CC[C@H](O)C/C1=C/C=C1\CCC[C@]2(C)[C@@H]([C@H](C)/C=C/[C@H](C)C(C)C)CC[C@@H]12 [ergocalciferol]	0.916
O=C(COc1ccc(Cl)cc1)N1CCN(Cc2ccc3c(c2)OCO3)CC1 [fipexide hydrochloride]	0.604
CC(C)[N+](C)(CCOC(=O)C1c2ccccc2Oc2ccccc21)C(C)C [propantheline bromide]	-0.659
CC(C)NCC(O)COc1cccc2[nH]ccc12 (centres undefined) [Pindolol]	0.381
O=c1oc2cc(O)ccc2s1 [thioxolone]	-0.346
CC/C=C\C/C=C\C/C=C\C/C=C\C/C=C\C/C=C\CCC(=O)O [doconexent]	-0.685
C#C[C@]1(O)CC[C@H]2[C@@H]3CCC4=Cc5oncc5C[C@]4(C)[C@H]3CC[C@@]21C [danazol]	-0.14

Laid out differently: entries from further up.
SMILES | MUC1 transcript change (Z-score)
OCCN1C[C@H](O)[C@@H](O)[C@H](O)[C@H]1CO [miglitol] | 0.797
CC/C=C\C/C=C\C/C=C\C/C=C\C/C=C\CCCC(=O)OCC [omega-3-acid esters (epa shown)] | -0.652
CO[C@@]1(NC(=O)C(C(=O)O)c2ccc(O)cc2)C(=O)N2C(C(=O)O)=C(CSc3nnnn3C)CO[C@@H]21 (some centres undefined) [moxalactam disodium] | -0.161
COc1c(C)c2c(c(O)c1C/C=C(\C)CCC(=O)OCCN1CCOCC1)C(=O)OC2 [mycophenolate mofetil] | 1.2
Nc1nc(O)c2ncn(CCC(CO)CO)c2n1 [penciclovir] | -0.553
COc1ccc(CC2c3cc(OC)c(OC)cc3CC[N+]2(C)CCC(=O)OCCCCCOC(=O)CC[N+]2(C)CCc3cc(OC)c(OC)cc3C2Cc2ccc(OC)c(OC)c2)cc1OC (centres undefined) [atracurium besylate] | 0.188
C#C[C@]1(OC(C)=O)CCC2C3CCC4=C/C(=N/O)CCC4C3CC[C@@]21CC (some centres undefined) [norgestimate] | 0.846
CCc1c2c(nc3ccc(OC(=O)N4CCC(N5CCCCC5)CC4)cc13)-c1cc3c(c(=O)n1C2)COC(=O)[C@]3(O)CC [irinotecan hydrochloride] | -0.319
CCn1cc(C(=O)O)c(=O)c2cc(F)c(N3CCNCC3)nc21 [enoxacin] | 1.34
Fc1ccc([C@@H]2CCNC[C@H]2COc2ccc3c(c2)OCO3)cc1 [paroxetine hydrochloride] | -0.512
C[C@]12C=CC(=O)C=C1CCC1C2[C@@H](O)C[C@@]2(C)C1CC[C@]2(O)C(=O)CO (some centres undefined) [prednisolone] | -0.551
Cc1c(Nc2ncccc2C(=O)O)cccc1C(F)(F)F [flunixin meglumine] | -0.628
CCCCC1C(=O)N(c2ccccc2)N(c2ccccc2)C1=O [Phenylbutazone] | -0.203
O=C1C(O)=C(O)C(=O)C(O)=C1O [tetroquinone] | 0.421
CC(C)(C)CC(C)(C)c1ccc(OCCOCC[N+](C)(C)Cc2ccccc2)cc1 [benzethonium chloride] | 1.91
CC(C)(C)NC(=O)[C@H]1CC[C@H]2[C@@H]3CC[C@H]4NC(=O)C=C[C@]4(C)[C@H]3CC[C@]12C [finasteride] | -0.486
N=C(N)Nc1nc(CSCCC(=N)NS(N)(=O)=O)cs1 [famotidine] | 0.761
O=C(COc1ccc(Cl)cc1)N1CCN(Cc2ccc3c(c2)OCO3)CC1 [fipexide hydrochloride] | 0.604
CC(C)NCC(O)COc1cccc2[nH]ccc12 (centres undefined) [Pindolol] | 0.381
C#C[C@]1(O)CC[C@H]2[C@@H]3CCC4=Cc5oncc5C[C@]4(C)[C@H]3CC[C@@]21C [danazol] | -0.14

Next entries

SMILES	MUC1 transcript change (Z-score)
CC1(C)OC(=O)C(OCC2CC2)=C1c1ccc(S(C)(=O)=O)cc1 [firocoxib]	0.693
CCOc1ccc(Cc2nccc3cc(OCC)c(OCC)cc23)cc1OCC [ethaverine hydrochloride]	-0.88
CC12CC3CC(C)(C1)CC(N)(C3)C2 [Memantine hydrochloride]	0.593
C=C(CC)C(=O)c1ccc(OCC(=O)O)c(Cl)c1Cl [ethacrynic acid]	-0.501
NC[C@H]1O[C@H](OC2[C@@H](N)C[C@@H](N)[C@H](O[C@H]3O[C@H](CO)[C@@H](O)[C@H](N)[C@H]3O)[C@H]2O)[C@H](O)[C@@H](O)[C@@H]1O (some centres undefined) [kanamycin sulfate]	0.374
CCN(CC)CCNc1ccc(CO)c2sc3ccccc3c(=O)c12 [hycanthone]	-0.871
Cn1c(=O)c2c(ncn2CC2OCCO2)n(C)c1=O [doxofylline]	1.17
CCC[C@@H]1C[C@@H](C(=O)N[C@@H]([C@H]2O[C@H](SC)[C@H](O)[C@@H](O)[C@H]2O)[C@@H](C)O)N(C)C1 [lincomycin hydrochloride]	0.654
CCOC(=O)[N-]c1c[n+](N2CCOCC2)no1 [molsidomine]	-0.622
c1ccc2[nH]c(-c3cscn3)nc2c1 [thiabendazole]	0.325
CC(CCC(=O)O)[C@H]1CCC2C3C(=O)C[C@@H]4CC(=O)CC[C@]4(C)C3CC(=O)[C@@]21C (some centres undefined) [dehydrocholic acid]	0.865
CCCCC1(COC(=O)CCC(=O)O)C(=O)N(c2ccccc2)N(c2ccccc2)C1=O [suxibuzone]	-0.528
CN(C)c1nc(N(C)C)nc(N(C)C)n1 [altretamine]	-1.05
C[C@]12C=CC(=O)C=C1CCC1C2[C@@H](O)C[C@@]2(C)C1CC[C@]2(O)C(=O)COP(=O)(O)O (some centres undefined) [prednisolone sodium phosphate]	0.706
O=C(O)CCC(=O)Nc1ccc(S(=O)(=O)Nc2nccs2)cc1 [succinylsulfathiazole]	-0.149
O=C1c2ccccc2C(=O)C1c1ccc(Cl)cc1 [chlorindione]	0.571
NNC(=O)c1ccncc1 [isoniazid]	1.2
Nc1cc(C(Cl)=C(Cl)Cl)c(S(N)(=O)=O)cc1S(N)(=O)=O [clorsulon]	0.487
COc1cccc(OC)c1C(=O)N[C@@H]1C(=O)N2[C@@H]1SC(C)(C)[C@@H]2C(=O)O [methicillin sodium]	0.476
N[C@@H](COP(=O)(O)O)C(=O)O [O-Phospho-L-serine]	-0.434
CN(C)CCc1c[nH]c2ccc(CS(=O)(=O)N3CCCC3)cc12 [almotriptan]	-1.1
[O-][n+]1cccc(CO)c1 [mepiroxol]	-0.249
NC(=O)c1ccc[n+]([C@@H]2O[C@H](COP(=O)([O-])OP(=O)(O)OC[C@H]3O[C@@H](n4cnc5c(N)ncnc54)[C@H](O)[C@@H]3O)[C@@H](O)[C@H]2O)c1 [nadide]	0.000285
N[C@@H](Cc1ccc(O)c(O)c1)C(=O)O [levodopa]	-0.314

From the supplement of paper PMC4749390
